{"source": "patent US6818049B1", "about": "“Environmentally preferred fluids and fluid blends” (ExxonMobil Chemical Patents Inc., priority 1998, dated 2004)", "key": {"[1]": {"settings": "known values from published sources, cited from earlier work"}, "[2]": {"experiment": "Weight average MIR (WAMIR) and ozone formation of solvent blends", "settings": "for Weight % of Methyl Acetate in Blend with Absolute MIR = 0.45: blend of methyl acetate with the second fluid solvent, minimum methyl acetate content; for Weight % of DMC in Blend with Absolute MIR = 0.45: blend of DMC with the second fluid solvent"}}, "note": "Like-named read-outs stand apart in the source and are kept apart here."}
{"compound": "CCOC(=O)CC", "note": "[Ethyl Propionate]", "values": [{"measurement": "MIR / Absolute MIR", "setting": "[1]", "value": 0.86}, {"measurement": "Weight % of Methyl Acetate in Blend with Absolute MIR = 0.45", "setting": "[2]", "value": 55.4, "unit": "Weight %"}, {"measurement": "Weight % of Second Fluid Solvent in Blend with Absolute MIR = 0.45", "setting": "[2]; blend with methyl acetate", "value": 44.6, "unit": "Weight %"}]}
{"compound": "Cc1ccc(C)cc1", "note": "[p-xylene]", "values": [{"measurement": "MIR / Absolute MIR", "setting": "[1]", "value": 4.40}]}
{"compound": "COC(C)=O", "note": "[methyl acetate]", "values": [{"measurement": "MIR / Absolute MIR", "setting": "[1]", "value": 0.12}]}
{"compound": "CC(=O)O", "note": "[acetic acid]", "values": [{"measurement": "MIR / Absolute MIR", "setting": "[1]", "value": 0.67}]}
{"compound": "CC(C)=O", "note": "[Acetone]", "values": [{"measurement": "MIR / Absolute MIR", "setting": "[1]", "value": 0.48}]}
{"compound": "ClCCl", "note": "[CH2Cl2, methylene chloride]", "values": [{"measurement": "MIR / Absolute MIR", "setting": "[1]", "value": 0.10}]}
{"compound": "CC(C)OC(=O)OC(C)C", "note": "[Diisopropyl Carbonate]", "values": [{"measurement": "Weight % of DMC in Blend with Absolute MIR = 0.45", "setting": "[2]", "value": 29.6, "unit": "Weight %"}, {"measurement": "Weight % of Methyl Acetate in Blend with Absolute MIR = 0.45", "setting": "[2]", "value": 32.1, "unit": "Weight %"}, {"measurement": "Weight % of Second Fluid Solvent in Blend with Absolute MIR = 0.45", "setting": "[2]; blend with DMC", "value": 70.4, "unit": "Weight %"}, {"measurement": "Weight % of Second Fluid Solvent in Blend with Absolute MIR = 0.45", "setting": "[2]; blend with methyl acetate", "value": 67.9, "unit": "Weight %"}]}
{"compound": "CCCCO", "note": "[N-Butyl Alcohol]", "values": [{"measurement": "MIR / Absolute MIR", "setting": "[1]", "value": 3.53}, {"measurement": "MIR / Absolute MIR", "setting": "[1]; listed as N-Butanol", "value": 3.53}]}
{"compound": "CC(=O)OC(C)(C)C", "note": "[t-butyl acetate]", "values": [{"measurement": "MIR / Absolute MIR", "setting": "[1]", "value": 0.21}]}
{"compound": "CC(=O)CC(C)C", "note": "[MIBK, methyl isobutyl ketone]", "values": [{"measurement": "MIR / Absolute MIR", "setting": "[1]", "value": 4.68}]}
{"compound": "CCCCCCCCCCC", "note": "[Undecane]", "values": [{"measurement": "MIR / Absolute MIR", "setting": "[1]", "value": 0.82}, {"measurement": "Weight % of Methyl Acetate in Blend with Absolute MIR = 0.45", "setting": "[2]", "value": 52.9, "unit": "Weight %"}, {"measurement": "Weight % of Second Fluid Solvent in Blend with Absolute MIR = 0.45", "setting": "[2]; blend with methyl acetate", "value": 47.1, "unit": "Weight %"}]}
{"compound": "CC(C)(C)O", "note": "[tertiary butanol]", "values": [{"measurement": "MIR / Absolute MIR", "setting": "[1]", "value": 0.40}]}
{"compound": "CC(=O)CC(C)(C)O", "note": "[Diacetone Alcohol]", "values": [{"measurement": "MIR / Absolute MIR", "setting": "[1]", "value": 0.96}, {"measurement": "Weight % of Methyl Acetate in Blend with Absolute MIR = 0.45", "setting": "[2]", "value": 60.7, "unit": "Weight %"}, {"measurement": "Weight % of Second Fluid Solvent in Blend with Absolute MIR = 0.45", "setting": "[2]; blend with methyl acetate", "value": 39.3, "unit": "Weight %"}]}
{"compound": "CCCCCCCCCCCC", "note": "[Dodecane]", "values": [{"measurement": "MIR / Absolute MIR", "setting": "[1]", "value": 0.72}, {"measurement": "Weight % of Methyl Acetate in Blend with Absolute MIR = 0.45", "setting": "[2]", "value": 45.0, "unit": "Weight %"}, {"measurement": "Weight % of Second Fluid Solvent in Blend with Absolute MIR = 0.45", "setting": "[2]; blend with methyl acetate", "value": 55.0, "unit": "Weight %"}]}
{"compound": "CCC(C)=O", "note": "[Methyl Ethyl Ketone]", "values": [{"measurement": "MIR / Absolute MIR", "setting": "[1]", "value": 1.32}, {"measurement": "MIR / Absolute MIR", "setting": "[1]; listed as MEK", "value": 1.34}, {"measurement": "Weight % of DMC in Blend with Absolute MIR = 0.45", "setting": "[2]", "value": 70.1, "unit": "Weight %"}, {"measurement": "Weight % of Second Fluid Solvent in Blend with Absolute MIR = 0.45", "setting": "[2]; blend with DMC", "value": 29.9, "unit": "Weight %"}]}
{"compound": "CC(C)O", "note": "[Isopropanol]", "values": [{"measurement": "MIR / Absolute MIR", "setting": "[1]", "value": 0.81}, {"measurement": "Weight % of DMC in Blend with Absolute MIR = 0.45", "setting": "[2]", "value": 49.2, "unit": "Weight %"}, {"measurement": "Weight % of Second Fluid Solvent in Blend with Absolute MIR = 0.45", "setting": "[2]; blend with DMC", "value": 50.8, "unit": "Weight %"}]}
{"compound": "CCOC(=O)C(C)(C)C", "note": "[Ethyl Pivalate]", "values": [{"measurement": "Weight % of DMC in Blend with Absolute MIR = 0.45", "setting": "[2]", "value": 35.8, "unit": "Weight %"}, {"measurement": "Weight % of Methyl Acetate in Blend with Absolute MIR = 0.45", "setting": "[2]", "value": 38.5, "unit": "Weight %"}, {"measurement": "Weight % of Second Fluid Solvent in Blend with Absolute MIR = 0.45", "setting": "[2]; blend with DMC", "value": 64.2, "unit": "Weight %"}, {"measurement": "Weight % of Second Fluid Solvent in Blend with Absolute MIR = 0.45", "setting": "[2]; blend with methyl acetate", "value": 61.5, "unit": "Weight %"}]}
{"compound": "CCCCOC(C)=O", "note": "[Butyl Acetate]", "values": [{"measurement": "MIR / Absolute MIR", "setting": "[1]", "value": 1.14}, {"measurement": "MIR / Absolute MIR", "setting": "[1]; listed as N-Butyl Acetate", "value": 1.14}, {"measurement": "MIR / Absolute MIR", "setting": "[1]; listed as butyl acetate", "value": 1.00}, {"measurement": "Weight % of DMC in Blend with Absolute MIR = 0.45", "setting": "[2]", "value": 65.0, "unit": "Weight %"}, {"measurement": "Weight % of Second Fluid Solvent in Blend with Absolute MIR = 0.45", "setting": "[2]; blend with DMC", "value": 35.0, "unit": "Weight %"}]}
{"compound": "CC1COC(=O)O1", "note": "(centres unmarked) [propylene carbonate]", "values": [{"measurement": "MIR / Absolute MIR", "setting": "[1]", "value": 0.43}]}
{"compound": "CCCCCC(C)=O", "note": "[Methyl Amyl Ketone (MAK), Methyl Amyl Ketone]", "values": [{"measurement": "MIR / Absolute MIR", "setting": "[1]", "value": 2.65}]}
{"compound": "C=C(C)C", "note": "[isobutylene]", "values": [{"measurement": "MIR / Absolute MIR", "setting": "[1]", "value": 6.81}]}
{"compound": "CC(C)COC(=O)C(C)C", "note": "[Isobutyl Isobutyrate]", "values": [{"measurement": "MIR / Absolute MIR", "setting": "[1]", "value": 0.86}, {"measurement": "Weight % of Methyl Acetate in Blend with Absolute MIR = 0.45", "setting": "[2]", "value": 55.4, "unit": "Weight %"}, {"measurement": "Weight % of Second Fluid Solvent in Blend with Absolute MIR = 0.45", "setting": "[2]; blend with methyl acetate", "value": 44.6, "unit": "Weight %"}]}
{"compound": "COC(=O)CCC(=O)OC", "note": "[dimethyl succinate]", "values": [{"measurement": "MIR / Absolute MIR", "setting": "[1]", "value": 0.20}]}
{"compound": "CC", "note": "[Ethane]", "values": [{"measurement": "MIR / Absolute MIR", "setting": "[1]", "value": 0.35}]}
{"compound": "CCCCCCCCCCCCC", "note": "[Tridecane]", "values": [{"measurement": "MIR / Absolute MIR", "setting": "[1]", "value": 0.66}, {"measurement": "Weight % of Methyl Acetate in Blend with Absolute MIR = 0.45", "setting": "[2]", "value": 38.9, "unit": "Weight %"}, {"measurement": "Weight % of Second Fluid Solvent in Blend with Absolute MIR = 0.45", "setting": "[2]; blend with methyl acetate", "value": 61.1, "unit": "Weight %"}]}
{"compound": "CCCCCCCCCC", "note": "[Decane]", "values": [{"measurement": "MIR / Absolute MIR", "setting": "[1]", "value": 0.93}, {"measurement": "Weight % of DMC in Blend with Absolute MIR = 0.45", "setting": "[2]", "value": 56.4, "unit": "Weight %"}, {"measurement": "Weight % of Methyl Acetate in Blend with Absolute MIR = 0.45", "setting": "[2]", "value": 59.3, "unit": "Weight %"}, {"measurement": "Weight % of Second Fluid Solvent in Blend with Absolute MIR = 0.45", "setting": "[2]; blend with DMC", "value": 43.6, "unit": "Weight %"}, {"measurement": "Weight % of Second Fluid Solvent in Blend with Absolute MIR = 0.45", "setting": "[2]; blend with methyl acetate", "value": 40.7, "unit": "Weight %"}]}
{"compound": "CCCCCOC(C)=O", "note": "[Amyl Acetate]", "values": [{"measurement": "MIR / Absolute MIR", "setting": "[1]", "value": 1.16}]}
{"compound": "CC(C)OC(=O)C(C)C", "note": "[Isopropyl Isobutyrate]", "values": [{"measurement": "MIR / Absolute MIR", "setting": "[1]", "value": 0.86}, {"measurement": "Weight % of DMC in Blend with Absolute MIR = 0.45", "setting": "[2]", "value": 52.5, "unit": "Weight %"}, {"measurement": "Weight % of Second Fluid Solvent in Blend with Absolute MIR = 0.45", "setting": "[2]; blend with DMC", "value": 47.5, "unit": "Weight %"}]}
